Reference: publication PMC8807876
No constants are given. Whether binding was seen depends on the method and setting. In cells and extracts the contact can be indirect. Binding can be weak; no strength is given.

Sequences of proteins named here, by UniProt entry; tags and fusion partners are left off. A change or cut given only in a name is not applied to a line headed by its entry.
UniProt Q7Z2Z1: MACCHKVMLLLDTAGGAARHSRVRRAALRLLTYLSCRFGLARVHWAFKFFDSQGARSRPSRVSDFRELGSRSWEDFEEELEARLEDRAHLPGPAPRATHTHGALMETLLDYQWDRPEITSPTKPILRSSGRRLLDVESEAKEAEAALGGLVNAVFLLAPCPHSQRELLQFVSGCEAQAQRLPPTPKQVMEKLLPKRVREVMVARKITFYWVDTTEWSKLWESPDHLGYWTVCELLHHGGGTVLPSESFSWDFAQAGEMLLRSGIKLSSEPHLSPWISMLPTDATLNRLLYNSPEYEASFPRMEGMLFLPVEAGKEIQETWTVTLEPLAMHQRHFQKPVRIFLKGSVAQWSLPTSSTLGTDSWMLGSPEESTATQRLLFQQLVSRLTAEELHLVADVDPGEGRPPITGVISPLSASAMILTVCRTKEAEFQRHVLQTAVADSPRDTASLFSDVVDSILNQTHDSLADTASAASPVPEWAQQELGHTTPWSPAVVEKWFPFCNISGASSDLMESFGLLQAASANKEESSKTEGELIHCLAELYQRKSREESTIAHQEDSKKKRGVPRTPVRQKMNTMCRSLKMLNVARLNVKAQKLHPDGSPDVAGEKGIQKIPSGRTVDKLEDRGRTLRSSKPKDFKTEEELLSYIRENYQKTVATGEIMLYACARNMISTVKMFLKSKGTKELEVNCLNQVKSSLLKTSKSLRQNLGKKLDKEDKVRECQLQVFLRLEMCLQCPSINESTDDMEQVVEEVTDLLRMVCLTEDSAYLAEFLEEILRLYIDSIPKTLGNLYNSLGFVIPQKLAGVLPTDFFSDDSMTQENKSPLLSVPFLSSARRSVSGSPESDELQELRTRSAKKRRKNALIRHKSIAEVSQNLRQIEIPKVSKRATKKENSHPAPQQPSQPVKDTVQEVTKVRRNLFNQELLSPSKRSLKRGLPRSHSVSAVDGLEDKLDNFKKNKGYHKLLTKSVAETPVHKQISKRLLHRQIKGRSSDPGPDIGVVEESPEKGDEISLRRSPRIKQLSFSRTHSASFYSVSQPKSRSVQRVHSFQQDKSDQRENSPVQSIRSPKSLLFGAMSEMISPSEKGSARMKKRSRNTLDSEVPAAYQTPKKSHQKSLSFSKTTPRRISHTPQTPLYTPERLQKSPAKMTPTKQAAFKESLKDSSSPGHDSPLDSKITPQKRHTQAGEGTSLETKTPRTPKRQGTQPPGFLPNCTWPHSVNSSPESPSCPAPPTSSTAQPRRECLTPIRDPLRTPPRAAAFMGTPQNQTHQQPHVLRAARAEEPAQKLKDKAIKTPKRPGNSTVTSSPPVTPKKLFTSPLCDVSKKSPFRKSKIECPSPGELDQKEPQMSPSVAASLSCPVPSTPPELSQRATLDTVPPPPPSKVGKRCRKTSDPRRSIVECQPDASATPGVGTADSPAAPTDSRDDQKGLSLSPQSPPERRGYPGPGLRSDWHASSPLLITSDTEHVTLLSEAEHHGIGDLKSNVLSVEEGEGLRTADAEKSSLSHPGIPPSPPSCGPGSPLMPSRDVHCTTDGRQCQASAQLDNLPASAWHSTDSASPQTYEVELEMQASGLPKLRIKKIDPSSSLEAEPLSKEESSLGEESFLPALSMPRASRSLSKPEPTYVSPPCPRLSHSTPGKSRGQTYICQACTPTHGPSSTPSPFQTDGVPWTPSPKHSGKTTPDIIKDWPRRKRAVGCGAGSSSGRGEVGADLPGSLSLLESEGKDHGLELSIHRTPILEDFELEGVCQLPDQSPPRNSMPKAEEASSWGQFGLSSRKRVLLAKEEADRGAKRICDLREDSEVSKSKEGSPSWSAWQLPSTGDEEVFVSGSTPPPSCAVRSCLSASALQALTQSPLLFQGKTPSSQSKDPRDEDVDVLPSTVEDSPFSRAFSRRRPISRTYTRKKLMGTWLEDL

Legend:
Assay in all cases: co-IP; Fig S13: GFP-Flag-Treslin/TICRR mutants transiently transfected into 293T together with MTBP; native lysates, anti-GFP nanobody IP in the presence of recombinant Cdk2-cyclin A; immunoblots for GFP, TopBP1 and MTBP
[1] = biological target: GFP-Flag-Treslin/TICRR-ΔC651 (human) (UniProt Q7Z2Z1)
[2] = biological target: GFP-Flag-Treslin/TICRR-ΔC853 (human) (UniProt Q7Z2Z1)
[3] = biological target: GFP-Flag-Treslin/TICRR-ΔCIT/ΔC651 (human) (UniProt Q7Z2Z1)

Measured: binding

B1: MTBP (co-transfected) (protein, UniProt Q96DY7 1-904)
chain: MDRYLLLVIWGEGKFPSAASREAEHGPEVSSGEGTENQPDFTAANVYHLLKRSISASINPEDSTFPACSVGGIPGSKKWFFAVQAIYGFYQFCSSDWQEIHFDTEKDKIEDVLQTNIEECLGAVECFEEEDSNSRESLSLADLYEEAAENLHQLSDKLPAPGRAMVDIILLLSDKDPPKLKDYLPTVGALKHLREWYSAKITIAGNHCEINCQKIAEYLSANVVSLEDLRNVIDSKELWRGKIQIWERKFGFEISFPEFCLKGVTLKNFSTSNLNTDFLAKKIIPSKDKNILPKVFHYYGPALEFVQMIKLSDLPSCYMSDIEFELGLTNSTKQNSVLLLEQISSLCSKVGALFVLPCTISNILIPPPNQLSSRKWKEYIAKKPKTISVPDVEVKGECSSYYLLLQGNGNRRCKATLIHSANQINGSFALNLIHGKMKTKTEEAKLSFPFDLLSLPHFSGEQIVQREKQLANVQVLALEECLKRRKLAKQPETVSVAELKSLLVLTRKHFLDYFDAVIPKMILRKMDKIKTFNILNDFSPVEPNSSSLMETNPLEWPERHVLQNLETFEKTKQKMRTGSLPHSSEQLLGHKEGPRDSITLLDAKELLKYFTSDGLPIGDLQPLPIQKGEKTFVLTPELSPGKLQVLPFEKASVCHYHGIEYCLDDRKALERDGGFSELQSRLIRYETQTTCTRESFPVPTVLSPLPSPVVSSDPGSVPDGEVLQNELRTEVSRLKRRSKDLNCLYPRKRLVKSESSESLLSQTTGNSNHYHHHVTSRKPQTERSLPVTCPLVPIPSCETPKLATKTSSGQKSMHESKTSRQIKESRSQKHTRILKEVVTETLKKHSITETHECFTACSQRLFEISKFYLKDLKTSRGLFEEMKKTANNNAVQVIDWVLEKTSKK
binds: all assays above
